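Malaria parasite (P. falciparum) lines kept in red blood cells; parasite DNA is measured by SYBR Green fluorescence after lysis, 72 h after compound addition.
Each compound was titrated across a series from about 0.000037 to 29 µM.
The number is the fitted AC50, the concentration giving a half-maximal change in signal; a lower value means higher potency, whether the curve shows a decrease or an increase.
Calls follow the curve class and fit quality: every row here is inconclusive, covering signal-raising curves and weak, poorly fitted, partial or highest-dose-only inhibition curves.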

Values are in µM.
Every entry below has the call inconclusive.
These entries are mostly ones the record files as inconclusive; other results of the assay are not listed here.
A potency from a partial, single-point or poor curve is only a rough figure.
Some entries filed as inconclusive have a full curve.

Compound,tested on / at,potency (µM),curve
CC1(C)O[C@H]2C[C@@H]3[C@H]4CCC5=CC(=O)CC[C@@]5(C)[C@]4(F)[C@@H](O)C[C@@]3(C)[C@@]2(C(=O)CCl)O1,CP269,8.087,"inhibitor, single point"
CC1(C)O[C@H]2C[C@@H]3[C@H]4CCC5=CC(=O)CC[C@@]5(C)[C@]4(F)[C@@H](O)C[C@@]3(C)[C@@]2(C(=O)CCl)O1,HB3,2.512,"inhibitor, partial curve"
CC1(C)O[C@H]2C[C@@H]3[C@H]4CCC5=CC(=O)CC[C@@]5(C)[C@]4(F)[C@@H](O)C[C@@]3(C)[C@@]2(C(=O)CCl)O1,CP305,5.103,"inhibitor, single point"
CC1(C)O[C@H]2C[C@@H]3[C@H]4CCC5=CC(=O)CC[C@@]5(C)[C@]4(F)[C@@H](O)C[C@@]3(C)[C@@]2(C(=O)CCl)O1,CP194,6.424,"inhibitor, single point"
CC1(C)O[C@H]2C[C@@H]3[C@H]4CCC5=CC(=O)CC[C@@]5(C)[C@]4(F)[C@@H](O)C[C@@]3(C)[C@@]2(C(=O)CCl)O1,DFO2036,5.012,"inhibitor, partial curve, poor fit"
CC1(C)O[C@H]2C[C@@H]3[C@H]4CCC5=CC(=O)CC[C@@]5(C)[C@]4(F)[C@@H](O)C[C@@]3(C)[C@@]2(C(=O)CCl)O1,JCK,10,"inhibitor, single point"
CC1(C)O[C@H]2C[C@@H]3[C@H]4CCC5=CC(=O)CC[C@@]5(C)[C@]4(F)[C@@H](O)C[C@@]3(C)[C@@]2(C(=O)CCl)O1,CP211,5.726,"inhibitor, single point"
CC1(C)O[C@H]2C[C@@H]3[C@H]4CCC5=CC(=O)CC[C@@]5(C)[C@]4(F)[C@@H](O)C[C@@]3(C)[C@@]2(C(=O)CCl)O1,CP297,9.074,"inhibitor, partial curve, poor fit"
CC1(C)O[C@H]2C[C@@H]3[C@H]4CCC5=CC(=O)CC[C@@]5(C)[C@]4(F)[C@@H](O)C[C@@]3(C)[C@@]2(C(=O)CCl)O1,CP286,10,"inhibitor, single point"
CC1(C)O[C@H]2C[C@@H]3[C@H]4CCC5=CC(=O)CC[C@@]5(C)[C@]4(F)[C@@H](O)C[C@@]3(C)[C@@]2(C(=O)CCl)O1,C2A,7.08,"inhibitor, single point"
CC1(C)O[C@H]2C[C@@H]3[C@H]4CCC5=CC(=O)CC[C@@]5(C)[C@]4(F)[C@@H](O)C[C@@]3(C)[C@@]2(C(=O)CCl)O1,CP315,0.8087,"inhibitor, full curve"
CC1(C)O[C@H]2C[C@@H]3[C@H]4CCC5=CC(=O)CC[C@@]5(C)[C@]4(F)[C@@H](O)C[C@@]3(C)[C@@]2(C(=O)CCl)O1,PAD,7.08,"inhibitor, single point"
CC1(C)O[C@H]2C[C@@H]3[C@H]4CCC5=CC(=O)CC[C@@]5(C)[C@]4(F)[C@@H](O)C[C@@]3(C)[C@@]2(C(=O)CCl)O1,CP325,7.208,"inhibitor, single point"
CC1(C)O[C@H]2C[C@@H]3[C@H]4CCC5=CC(=O)CC[C@@]5(C)[C@]4(F)[C@@H](O)C[C@@]3(C)[C@@]2(C(=O)CCl)O1,SC27B,7.08,"inhibitor, single point"
CC1(C)O[C@H]2C[C@@H]3[C@H]4CCC5=CC(=O)CC[C@@]5(C)[C@]4(F)[C@@H](O)C[C@@]3(C)[C@@]2(C(=O)CCl)O1,CP335,8.087,"inhibitor, single point"
CC1(C)O[C@H]2C[C@@H]3[C@H]4CCC5=CC(=O)CC[C@@]5(C)[C@]4(F)[C@@H](O)C[C@@]3(C)[C@@]2(C(=O)CCl)O1,CP268,6.424,"inhibitor, single point"
CC1(C)O[C@H]2C[C@@H]3[C@H]4CCC5=CC(=O)CC[C@@]5(C)[C@]4(F)[C@@H](O)C[C@@]3(C)[C@@]2(C(=O)CCl)O1,TAB113,5.012,"inhibitor, single point"
CC1(C)O[C@H]2C[C@@H]3[C@H]4CCC5=CC(=O)CC[C@@]5(C)[C@]4(F)[C@@H](O)C[C@@]3(C)[C@@]2(C(=O)CCl)O1,CP215,5.726,"inhibitor, single point"
CC1(C)O[C@H]2C[C@@H]3[C@H]4CCC5=CC(=O)CC[C@@]5(C)[C@]4(F)[C@@H](O)C[C@@]3(C)[C@@]2(C(=O)CCl)O1,CP291,6.424,"inhibitor, single point"
CC1(C)O[C@H]2C[C@@H]3[C@H]4CCC5=CC(=O)CC[C@@]5(C)[C@]4(F)[C@@H](O)C[C@@]3(C)[C@@]2(C(=O)CCl)O1,CP238,4.467,"inhibitor, single point"
CC(NCCC(c1ccccc1)c1ccccc1)c1ccccc1 (stereo not drawn),CP192,19.01,"inhibitor, single point"
CC(NCCC(c1ccccc1)c1ccccc1)c1ccccc1 (stereo not drawn),CP265,8.912,"inhibitor, partial curve"
CC(NCCC(c1ccccc1)c1ccccc1)c1ccccc1 (stereo not drawn),CP315,12,"inhibitor, partial curve"
CC(NCCC(c1ccccc1)c1ccccc1)c1ccccc1 (stereo not drawn),CP215,16.94,"inhibitor, single point"
CC(NCCC(c1ccccc1)c1ccccc1)c1ccccc1 (stereo not drawn),CP238,10,"inhibitor, single point"
CC(NCCC(c1ccccc1)c1ccccc1)c1ccccc1 (stereo not drawn),ATS189,17.78,"inhibitor, single point"
CC(NCCC(c1ccccc1)c1ccccc1)c1ccccc1 (stereo not drawn),CP203,12,"inhibitor, partial curve"
CC(NCCC(c1ccccc1)c1ccccc1)c1ccccc1 (stereo not drawn),TAB113,10,"inhibitor, single point"
CC(NCCC(c1ccccc1)c1ccccc1)c1ccccc1 (stereo not drawn),CP297,19.01,"inhibitor, single point"
CC(NCCC(c1ccccc1)c1ccccc1)c1ccccc1 (stereo not drawn),JCK,11.22,"inhibitor, single point"
CC(NCCC(c1ccccc1)c1ccccc1)c1ccccc1 (stereo not drawn),CP211,19.01,"inhibitor, single point"
CC(NCCC(c1ccccc1)c1ccccc1)c1ccccc1 (stereo not drawn),DFO2036,17.78,"inhibitor, single point"
CC(NCCC(c1ccccc1)c1ccccc1)c1ccccc1 (stereo not drawn),CP250,14.13,"inhibitor, single point"
CC(NCCC(c1ccccc1)c1ccccc1)c1ccccc1 (stereo not drawn),CP266,12,"inhibitor, single point"
CC(NCCC(c1ccccc1)c1ccccc1)c1ccccc1 (stereo not drawn),CP201,19.01,"inhibitor, single point"
CC(NCCC(c1ccccc1)c1ccccc1)c1ccccc1 (stereo not drawn),FAB9,11.22,"inhibitor, single point"
CC(NCCC(c1ccccc1)c1ccccc1)c1ccccc1 (stereo not drawn),3D7,17.78,"inhibitor, single point"
CC(NCCC(c1ccccc1)c1ccccc1)c1ccccc1 (stereo not drawn),CP329,16.94,"inhibitor, single point"
CO[C@]12C(COC(N)=O)C3=C(C(=O)C(C)=C(N)C3=O)N1CC1NC12 (stereo partly drawn),3D7,19.95,"inhibitor, single point"
CO[C@]12C(COC(N)=O)C3=C(C(=O)C(C)=C(N)C3=O)N1CC1NC12 (stereo partly drawn),CP265,7.943,"inhibitor, partial curve, poor fit"
CO[C@]12C(COC(N)=O)C3=C(C(=O)C(C)=C(N)C3=O)N1CC1NC12 (stereo partly drawn),CP305,16.94,"inhibitor, single point"
CO[C@]12C(COC(N)=O)C3=C(C(=O)C(C)=C(N)C3=O)N1CC1NC12 (stereo partly drawn),CP201,19.01,"inhibitor, single point"
CO[C@]12C(COC(N)=O)C3=C(C(=O)C(C)=C(N)C3=O)N1CC1NC12 (stereo partly drawn),DIV14,16.94,"inhibitor, single point"

Some entries from above, unchanged:

| Compound | tested on / at | potency (µM) | curve |
|---|---|---|---|
| `CC(NCCC(c1ccccc1)c1ccccc1)c1ccccc1` (stereo not drawn) | JCK | 11.22 | inhibitor, single point |
| `CC(NCCC(c1ccccc1)c1ccccc1)c1ccccc1` (stereo not drawn) | CP266 | 12 | inhibitor, single point |
| `CC(NCCC(c1ccccc1)c1ccccc1)c1ccccc1` (stereo not drawn) | CP238 | 10 | inhibitor, single point |
| `CC1(C)O[C@H]2C[C@@H]3[C@H]4CCC5=CC(=O)CC[C@@]5(C)[C@]4(F)[C@@H](O)C[C@@]3(C)[C@@]2(C(=O)CCl)O1` | CP211 | 5.726 | inhibitor, single point |

Source: PubChem BioAssay AID504749 (NCATS, 2011).